The list shows a part of the results.
compound: CN1C2=C(C3=C1C(=O)N(N=C3)CC4=CC(=CC=C4)N)SC(=C2)S(=O)C; test: log2 fold change, soluble protein after heating vs DMSO (PISA); higher = thermal stabilisation; K562 cells, 10 uM, 30 min; active = over 0.2 and 3.5 SD of the protein, either way, in both replicates (recomputed)
In short: (§1)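 K562 cells at 2×10^6 cells/mL were exposed to 10 μM compound for 30 min, then aliquots were heated for 3 min across 48°C-58°C, pooled, and extracted in PBS containing 0.5% NP-40 at 4°C. The supernatant after 21,000xg for 90 min was taken as soluble protein and measured by TMTpro 16plex LC-MS/MS with channel sums equalised. Thermal stability is reported relative to control samples, with values from duplicates. Fold changes are given on a log2 scale.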

The chains behind the UniProt entries cited, without tags or fusion partners. Where a name states a change or a piece, a line headed by the entry shows the natural chain unless it says otherwise.
UniProt P02748: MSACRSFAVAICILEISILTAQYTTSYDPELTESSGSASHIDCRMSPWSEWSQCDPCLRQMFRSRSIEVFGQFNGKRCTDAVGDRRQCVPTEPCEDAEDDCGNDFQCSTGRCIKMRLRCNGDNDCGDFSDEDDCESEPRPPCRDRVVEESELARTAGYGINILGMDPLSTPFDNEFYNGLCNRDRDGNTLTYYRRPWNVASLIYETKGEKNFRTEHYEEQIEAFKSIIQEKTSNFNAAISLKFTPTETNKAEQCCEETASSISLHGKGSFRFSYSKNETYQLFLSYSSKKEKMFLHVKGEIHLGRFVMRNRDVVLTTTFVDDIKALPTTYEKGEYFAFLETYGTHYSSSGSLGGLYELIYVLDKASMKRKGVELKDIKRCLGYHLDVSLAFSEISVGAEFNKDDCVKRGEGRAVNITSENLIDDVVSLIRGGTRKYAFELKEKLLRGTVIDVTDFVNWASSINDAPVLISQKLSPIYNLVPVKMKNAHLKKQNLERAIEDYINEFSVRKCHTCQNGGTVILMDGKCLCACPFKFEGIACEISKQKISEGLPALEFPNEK
UniProt P07358, whole entry, looked up: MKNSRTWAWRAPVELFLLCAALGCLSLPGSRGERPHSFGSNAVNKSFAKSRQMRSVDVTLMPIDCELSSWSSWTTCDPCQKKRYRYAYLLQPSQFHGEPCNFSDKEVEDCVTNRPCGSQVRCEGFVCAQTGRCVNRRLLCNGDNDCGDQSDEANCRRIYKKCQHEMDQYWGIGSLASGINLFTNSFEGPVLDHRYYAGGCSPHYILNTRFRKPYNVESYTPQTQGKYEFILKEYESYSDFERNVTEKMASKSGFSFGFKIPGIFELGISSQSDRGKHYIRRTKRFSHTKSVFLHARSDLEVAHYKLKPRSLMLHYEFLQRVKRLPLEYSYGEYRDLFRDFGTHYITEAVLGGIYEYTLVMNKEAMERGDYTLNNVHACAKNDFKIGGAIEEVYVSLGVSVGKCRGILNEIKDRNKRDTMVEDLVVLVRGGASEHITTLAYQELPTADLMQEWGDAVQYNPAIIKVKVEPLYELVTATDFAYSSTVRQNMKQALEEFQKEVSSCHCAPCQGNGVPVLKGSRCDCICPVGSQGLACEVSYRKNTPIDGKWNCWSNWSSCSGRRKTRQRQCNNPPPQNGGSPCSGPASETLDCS
UniProt Q8N1Q1: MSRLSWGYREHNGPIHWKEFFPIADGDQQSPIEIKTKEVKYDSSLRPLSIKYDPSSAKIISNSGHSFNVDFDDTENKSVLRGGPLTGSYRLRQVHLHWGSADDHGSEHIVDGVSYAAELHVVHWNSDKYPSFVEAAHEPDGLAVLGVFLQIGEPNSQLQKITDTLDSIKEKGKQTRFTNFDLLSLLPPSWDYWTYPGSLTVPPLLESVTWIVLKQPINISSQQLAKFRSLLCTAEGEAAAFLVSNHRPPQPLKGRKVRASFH
UniProt Q9UQM7, whole entry, looked up: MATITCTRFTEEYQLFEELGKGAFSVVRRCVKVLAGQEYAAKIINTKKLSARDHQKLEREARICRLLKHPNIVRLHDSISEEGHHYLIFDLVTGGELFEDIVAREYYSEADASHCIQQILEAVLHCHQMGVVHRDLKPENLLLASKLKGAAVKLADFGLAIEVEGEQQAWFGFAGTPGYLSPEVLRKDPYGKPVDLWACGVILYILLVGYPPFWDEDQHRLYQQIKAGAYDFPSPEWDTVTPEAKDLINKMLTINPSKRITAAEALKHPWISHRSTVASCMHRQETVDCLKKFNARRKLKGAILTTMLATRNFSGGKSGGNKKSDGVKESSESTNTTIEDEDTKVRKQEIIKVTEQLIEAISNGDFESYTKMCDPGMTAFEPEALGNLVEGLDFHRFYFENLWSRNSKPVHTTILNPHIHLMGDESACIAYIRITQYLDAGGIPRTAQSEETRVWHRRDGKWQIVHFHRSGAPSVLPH
UniProt Q9BRJ6: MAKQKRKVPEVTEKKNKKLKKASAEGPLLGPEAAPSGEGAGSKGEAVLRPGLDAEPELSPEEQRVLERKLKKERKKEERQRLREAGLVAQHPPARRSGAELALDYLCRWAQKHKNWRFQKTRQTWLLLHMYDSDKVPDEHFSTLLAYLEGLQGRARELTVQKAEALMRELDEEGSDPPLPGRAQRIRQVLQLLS
UniProt Q0VDD7: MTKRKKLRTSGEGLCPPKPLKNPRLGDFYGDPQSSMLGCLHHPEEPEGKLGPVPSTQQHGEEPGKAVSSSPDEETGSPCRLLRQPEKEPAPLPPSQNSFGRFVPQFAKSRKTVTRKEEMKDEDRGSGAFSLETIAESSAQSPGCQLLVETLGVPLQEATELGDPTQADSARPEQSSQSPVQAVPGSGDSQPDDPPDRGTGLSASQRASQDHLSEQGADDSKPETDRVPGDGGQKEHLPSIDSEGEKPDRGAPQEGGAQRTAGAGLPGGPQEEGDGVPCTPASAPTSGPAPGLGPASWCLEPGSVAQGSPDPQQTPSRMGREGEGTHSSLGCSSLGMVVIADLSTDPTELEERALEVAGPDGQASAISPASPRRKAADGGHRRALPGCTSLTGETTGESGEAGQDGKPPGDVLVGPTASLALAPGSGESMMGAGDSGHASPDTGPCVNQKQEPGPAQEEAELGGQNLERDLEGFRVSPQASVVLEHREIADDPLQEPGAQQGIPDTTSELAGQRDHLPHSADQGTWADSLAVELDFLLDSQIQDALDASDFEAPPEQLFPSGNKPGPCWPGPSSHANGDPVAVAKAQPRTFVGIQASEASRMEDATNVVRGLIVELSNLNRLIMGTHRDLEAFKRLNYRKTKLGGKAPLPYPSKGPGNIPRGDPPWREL
UniProt Q9BXL7: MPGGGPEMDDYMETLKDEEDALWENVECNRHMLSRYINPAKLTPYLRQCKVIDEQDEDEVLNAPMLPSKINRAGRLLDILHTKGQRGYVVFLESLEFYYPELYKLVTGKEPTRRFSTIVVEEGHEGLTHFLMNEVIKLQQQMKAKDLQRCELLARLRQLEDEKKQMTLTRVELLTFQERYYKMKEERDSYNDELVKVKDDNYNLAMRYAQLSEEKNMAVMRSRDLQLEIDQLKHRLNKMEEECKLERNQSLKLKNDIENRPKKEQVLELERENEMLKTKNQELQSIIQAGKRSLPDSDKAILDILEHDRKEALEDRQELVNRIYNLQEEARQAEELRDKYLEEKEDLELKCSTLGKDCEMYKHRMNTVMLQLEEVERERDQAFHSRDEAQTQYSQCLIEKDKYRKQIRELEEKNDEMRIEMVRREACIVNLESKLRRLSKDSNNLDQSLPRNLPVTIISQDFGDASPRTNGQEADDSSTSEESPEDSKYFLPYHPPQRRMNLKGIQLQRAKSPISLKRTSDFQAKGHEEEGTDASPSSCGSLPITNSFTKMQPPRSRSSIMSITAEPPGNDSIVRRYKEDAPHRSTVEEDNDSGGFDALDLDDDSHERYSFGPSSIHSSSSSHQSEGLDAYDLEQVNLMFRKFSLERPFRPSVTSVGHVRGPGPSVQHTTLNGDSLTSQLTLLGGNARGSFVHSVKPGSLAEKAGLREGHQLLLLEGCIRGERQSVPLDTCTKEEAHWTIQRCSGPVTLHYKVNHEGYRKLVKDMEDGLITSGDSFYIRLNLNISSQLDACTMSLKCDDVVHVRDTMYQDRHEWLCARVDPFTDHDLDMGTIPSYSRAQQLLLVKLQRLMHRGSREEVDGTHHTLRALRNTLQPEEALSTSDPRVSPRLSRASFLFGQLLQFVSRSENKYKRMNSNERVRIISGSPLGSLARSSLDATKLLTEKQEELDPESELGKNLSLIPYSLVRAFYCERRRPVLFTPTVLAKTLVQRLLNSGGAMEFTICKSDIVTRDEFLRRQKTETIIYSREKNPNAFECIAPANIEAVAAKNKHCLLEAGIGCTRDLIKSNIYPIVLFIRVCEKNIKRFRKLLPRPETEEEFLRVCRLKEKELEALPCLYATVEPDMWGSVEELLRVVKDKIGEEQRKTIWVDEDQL
UniProt Q9BUW7: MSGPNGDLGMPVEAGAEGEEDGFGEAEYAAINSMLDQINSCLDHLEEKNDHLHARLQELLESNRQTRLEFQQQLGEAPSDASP
UniProt Q7Z7L8: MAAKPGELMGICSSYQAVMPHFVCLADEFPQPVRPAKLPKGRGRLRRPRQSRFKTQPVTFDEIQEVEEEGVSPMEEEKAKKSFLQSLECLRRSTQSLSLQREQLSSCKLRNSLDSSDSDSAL
UniProt Q96HA4: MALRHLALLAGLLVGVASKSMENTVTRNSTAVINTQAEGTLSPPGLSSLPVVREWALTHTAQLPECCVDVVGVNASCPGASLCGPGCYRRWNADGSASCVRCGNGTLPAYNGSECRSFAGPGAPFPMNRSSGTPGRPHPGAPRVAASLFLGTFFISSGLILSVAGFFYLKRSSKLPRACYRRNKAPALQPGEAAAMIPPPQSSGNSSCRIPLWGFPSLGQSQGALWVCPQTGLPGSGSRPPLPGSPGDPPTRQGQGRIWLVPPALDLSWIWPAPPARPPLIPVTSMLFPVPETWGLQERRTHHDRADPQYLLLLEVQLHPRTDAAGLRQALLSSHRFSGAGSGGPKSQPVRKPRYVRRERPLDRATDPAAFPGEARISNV
UniProt Q8N5S9: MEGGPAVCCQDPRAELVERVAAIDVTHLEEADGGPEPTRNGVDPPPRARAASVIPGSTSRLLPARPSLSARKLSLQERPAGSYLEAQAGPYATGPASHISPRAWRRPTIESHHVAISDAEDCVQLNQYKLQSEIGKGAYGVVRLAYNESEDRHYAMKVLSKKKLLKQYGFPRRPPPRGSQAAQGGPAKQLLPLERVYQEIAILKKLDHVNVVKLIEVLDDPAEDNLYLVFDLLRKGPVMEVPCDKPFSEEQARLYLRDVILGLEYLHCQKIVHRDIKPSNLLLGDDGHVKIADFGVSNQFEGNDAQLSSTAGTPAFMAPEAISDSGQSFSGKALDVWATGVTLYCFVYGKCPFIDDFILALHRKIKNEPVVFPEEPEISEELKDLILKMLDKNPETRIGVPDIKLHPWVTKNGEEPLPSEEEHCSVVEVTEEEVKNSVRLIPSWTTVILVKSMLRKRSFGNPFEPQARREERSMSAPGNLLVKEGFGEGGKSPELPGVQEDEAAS
UniProt Q9HB07: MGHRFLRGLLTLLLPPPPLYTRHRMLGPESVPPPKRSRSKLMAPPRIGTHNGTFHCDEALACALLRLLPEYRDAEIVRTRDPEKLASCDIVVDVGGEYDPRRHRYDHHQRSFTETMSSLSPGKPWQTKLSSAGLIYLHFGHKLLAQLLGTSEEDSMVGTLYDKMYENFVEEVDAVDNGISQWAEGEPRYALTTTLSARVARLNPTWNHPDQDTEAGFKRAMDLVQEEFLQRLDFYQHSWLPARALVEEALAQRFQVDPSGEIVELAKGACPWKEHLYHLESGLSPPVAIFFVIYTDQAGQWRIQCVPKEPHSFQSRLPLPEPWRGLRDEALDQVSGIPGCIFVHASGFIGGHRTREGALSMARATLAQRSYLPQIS
UniProt Q05682: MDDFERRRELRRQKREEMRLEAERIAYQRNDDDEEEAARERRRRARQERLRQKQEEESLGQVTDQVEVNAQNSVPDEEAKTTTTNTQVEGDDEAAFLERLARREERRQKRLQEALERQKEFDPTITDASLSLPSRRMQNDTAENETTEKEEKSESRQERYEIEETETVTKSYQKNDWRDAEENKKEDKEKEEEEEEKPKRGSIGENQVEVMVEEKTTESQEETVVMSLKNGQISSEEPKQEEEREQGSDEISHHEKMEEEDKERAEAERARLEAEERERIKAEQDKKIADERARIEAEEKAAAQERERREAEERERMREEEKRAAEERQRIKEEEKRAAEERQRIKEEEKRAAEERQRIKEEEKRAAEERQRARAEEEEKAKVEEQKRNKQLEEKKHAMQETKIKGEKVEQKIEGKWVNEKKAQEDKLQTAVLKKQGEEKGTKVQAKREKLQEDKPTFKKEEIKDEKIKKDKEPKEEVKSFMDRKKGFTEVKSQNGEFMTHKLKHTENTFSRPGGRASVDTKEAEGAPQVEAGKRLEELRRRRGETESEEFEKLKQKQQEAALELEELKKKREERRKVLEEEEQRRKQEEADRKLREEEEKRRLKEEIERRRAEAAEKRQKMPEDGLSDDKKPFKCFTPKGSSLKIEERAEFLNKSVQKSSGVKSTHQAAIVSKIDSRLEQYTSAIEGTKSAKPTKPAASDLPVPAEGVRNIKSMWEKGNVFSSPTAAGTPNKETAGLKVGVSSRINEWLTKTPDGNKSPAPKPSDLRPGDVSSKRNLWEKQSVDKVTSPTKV
UniProt Q9GZU0: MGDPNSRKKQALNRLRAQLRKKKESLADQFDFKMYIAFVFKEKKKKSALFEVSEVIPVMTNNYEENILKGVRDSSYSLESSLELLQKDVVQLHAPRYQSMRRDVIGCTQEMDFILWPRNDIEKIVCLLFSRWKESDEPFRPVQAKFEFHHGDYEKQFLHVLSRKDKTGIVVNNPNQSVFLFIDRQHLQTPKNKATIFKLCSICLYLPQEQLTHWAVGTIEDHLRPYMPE
UniProt Q9H741: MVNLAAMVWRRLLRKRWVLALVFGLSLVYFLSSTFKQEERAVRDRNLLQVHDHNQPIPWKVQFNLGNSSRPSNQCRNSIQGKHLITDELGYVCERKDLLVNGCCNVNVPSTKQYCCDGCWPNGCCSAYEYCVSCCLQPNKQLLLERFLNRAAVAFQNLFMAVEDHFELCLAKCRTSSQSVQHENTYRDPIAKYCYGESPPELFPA

Row | Target | log2 fold change
1 | C9 (UniProt P02748) | inactive: 0.052
2 | C8B (UniProt P07358) | inactive: 0.287
3 | CA13 (UniProt Q8N1Q1) | inactive: 0
4 | CAMK2A isoform 2 (UniProt Q9UQM7) | inactive: -1.13
5 | C7orf50 (UniProt Q9BRJ6) | inactive: 0.258
6 | C19orf57 (UniProt Q0VDD7) | inactive: 0.075
7 | BTK isoform 2 (UniProt Q06187) | inactive: 0.447
8 | CARD11 (UniProt Q9BXL7) | inactive: 0.147
9 | C9orf16 (UniProt Q9BUW7) | inactive: 0
10 | BTBD10 isoform 2 (UniProt Q9BSF8) | inactive: 0.016
11 | CA1 (UniProt E5RIF9) | inactive: -0.056
12 | CALM1 (UniProt G3V361) | inactive: 0.001

compound: CN1CCC(CNc2ccc3ncc(-c4cccc(OC(F)(F)F)c4)n3n2)CC1; test: as above
In short: as §1

Row | Target | log2 fold change
13 | C11orf96 (UniProt Q7Z7L8) | inactive: 0.018
14 | C1orf159 isoform 4 (UniProt Q96HA4) | inactive: -0.101
15 | CAMKK1 isoform 2 (UniProt Q8N5S9) | inactive: 0.488
16 | C5 (UniProt P01031) | inactive: -0.278
17 | C12orf10 (UniProt Q9HB07) | inactive: 0.179
18 | CA13 (UniProt Q8N1Q1) | inactive: 0.038
19 | CALD1 (UniProt Q05682) | inactive: -0.071
20 | C19orf57 (UniProt Q0VDD7) | inactive: -0.011
21 | BTK isoform 2 (UniProt Q06187) | inactive: 0.135
22 | C6orf62 (UniProt Q9GZU0) | inactive: -0.208
23 | C17orf99 (UniProt Q6UX52) | inactive: 0.034
24 | C9orf16 (UniProt Q9BUW7) | inactive: 0.152
25 | C12orf49 (UniProt Q9H741) | inactive: -0.081
26 | BTBD10 isoform 2 (UniProt Q9BSF8) | inactive: -0.276

From the supplement of paper PMC10849652
